Test results published in PubChem BioAssay AID248 (DTP/NCI, 2004).
The list does not hold the whole screen: it gathers tests that were run many times, whatever their T/C, doses with no T/C, and many T/C values between a quarter and a half above the control. Other doses and runs of a compound stand elsewhere. T/C gives the treated animals as a percentage of the vehicle group. Some entries give survivors of the animals treated and no T/C: the source files T/C as zero there, which appears to mark a toxic dose or a test without result, not a measured value. Some survivor counts are full or nearly so, which does not show that the dose was tolerated: survival well below the control is almost never listed, so the zero probably covers shortened survival too. Counts of survivors are from the toxicity check (mostly the fifth day) where no day follows; animals may have died later. Schedules are NCI's codes, taken here to give the interval after Q, in days (D) or hours (H), and the number of doses after X. Some schedules carry Z or #; the key to these is not given. Some entries were tested several times; the results are listed from low to high. Where survival is the endpoint, the PubChem record calls one and a half times the control and up active, and a quarter to a half above the control has no call in these data; cut-offs in other NCI protocols can differ. Counts like (3×) stand for listed records that agree. Some T/C values are followed by the survivors on the day toxicity was checked, most often the fifth; without a count, all were alive then.

System: L1210 leukemia ip in BDF1 mice, survival T/C
Test: NCI In Vivo Anticancer Drug Screen. Data for tumor model L1210 Leukemia (intraperitoneal) in B6D2F1 (BDF1) mice
Details: T/C endpoint: mean survival time, higher T/C = longer survival
[1] = dose: 6.25 mg/kg/injection, schedule: Q03HX024 (ip), vehicle: saline
[2] = dose: 53.0 mg/kg/injection, schedule: Q01DX Z (ip), vehicle: saline
[3] = dose: 80.0 mg/kg/injection, schedule: Q01DX Z (ip), vehicle: saline
[4] = dose: 93.0 mg/kg/injection, schedule: Q01DX Z (oral), vehicle: saline
[5] = dose: 100.0 mg/kg/injection, schedule: Q04DX003 (ip), vehicle: saline

CN(C)c1ccc(Nc2c3ccccc3nc3ccccc23)cc1
survivor count (dose: 3.13 mg/kg/injection, schedule: Q03HX024 (ip), vehicle: saline): 9 of 10
T/C [1]: 131 % of control
survivor count [1]: 0 of 10
T/C (dose: 6.25 mg/kg/injection, schedule: Q03HX040 (ip), vehicle: saline): 125 % of control
T/C (dose: 12.5 mg/kg/injection, schedule: Q03HX008 (ip), vehicle: saline, evaluated on day 35): 127 % of control
T/C (dose: 12.5 mg/kg/injection, schedule: Q03HX008 (ip), vehicle: saline, run until all animals had died): 126 % of control
T/C (dose: 12.5 mg/kg/injection, schedule: Q06HX020 (ip), vehicle: saline): 140 % of control
T/C (dose: 15.0 mg/kg/injection, schedule: Q01DX Z (ip), vehicle: saline): 130 % of control
T/C (dose: 20.0 mg/kg/injection, schedule: Q01DX005 (ip), vehicle: saline): 130 and 140 % of control
T/C (dose: 20.0 mg/kg/injection, schedule: Q01DX009 (ip), vehicle: saline): 140 % of control
T/C (dose: 22.5 mg/kg/injection, schedule: Q01DX009 (ip), vehicle: saline): 128 % of control
T/C (dose: 25.0 mg/kg/injection, schedule: Q01DX009 (ip), vehicle: saline): 130 % of control
survivor count (dose: 25.0 mg/kg/injection, schedule: Q03HX024 (ip), vehicle: saline): 10 of 10
survivor count (dose: 25.0 mg/kg/injection, schedule: Q03HX040 (ip), vehicle: saline): 9 of 10
T/C (dose: 25.0 mg/kg/injection, schedule: Q06HX004 (ip), vehicle: saline): 146 % of control
survivor count (dose: 25.0 mg/kg/injection, schedule: Q06HX020 (ip), vehicle: saline): 10 of 10
T/C (dose: 25.0 mg/kg/injection, schedule: Q#A X Z (oral), vehicle: saline): 131 % of control
T/C (dose: 26.5 mg/kg/injection, schedule: Q#A X Z (ip), vehicle: saline): 133 % of control
T/C (dose: 30.0 mg/kg/injection, schedule: Q01DX Z (ip), vehicle: saline): 136 % of control
T/C (dose: 30.0 mg/kg/injection, schedule: Q01DX Z (oral), vehicle: olive oil, sesame oil, peanut oil): 133 % of control
survivor count (dose: 35.0 mg/kg/injection, schedule: Q01DX007 (iv), vehicle: saline): 0 of 6
T/C (dose: 35.0 mg/kg/injection, schedule: Q01DX Z (sc), vehicle: saline): 134 % of control
T/C (dose: 36.0 mg/kg/injection, schedule: Q01DX Z (ip), vehicle: saline): 127 % of control
survivor count (dose: 40.0 mg/kg/injection, schedule: Q01DX005 (ip), vehicle: saline): 9 of 10
survivor count (dose: 40.0 mg/kg/injection, schedule: Q01DX009 (ip), vehicle: saline): 10 of 10
T/C (dose: 40.0 mg/kg/injection, schedule: Q#A X Z (ip), vehicle: saline): 133 % of control
T/C (dose: 45.0 mg/kg/injection, schedule: Q01DX009 (ip), vehicle: saline): 137 and 145 % of control
T/C (dose: 50.0 mg/kg/injection, schedule: Q01DX005 (ip), vehicle: Klucel (hydroxypropylcellulose) (HPC)): 128 % of control
T/C (dose: 50.0 mg/kg/injection, schedule: Q01DX005 (ip), vehicle: other): 138 % of control
T/C (dose: 50.0 mg/kg/injection, schedule: Q01DX009 (ip), vehicle: saline): 127 and 135 % of control
T/C (dose: 50.0 mg/kg/injection, schedule: Q01DX Z (im), vehicle: saline): 131 % of control
survivor count (dose: 50.0 mg/kg/injection, schedule: Q03HX008 (ip), vehicle: saline): 0 of 10 and 2 of 10
survivor count (dose: 50.0 mg/kg/injection, schedule: Q03HX016 (ip), vehicle: saline): 0 of 10
survivor count (dose: 50.0 mg/kg/injection, schedule: Q03HX024 (ip), vehicle: saline): 4 of 10
T/C (dose: 50.0 mg/kg/injection, schedule: Q04DX003 (ip), vehicle: saline, evaluated on day 30): 111 and 118 % of control
T/C (dose: 50.0 mg/kg/injection, schedule: Q04DX003 (ip), vehicle: saline, run until all animals had died): 149 and 169 % of control
T/C (dose: 50.0 mg/kg/injection, schedule: Q06HX012 (ip), vehicle: saline): 130 % of control
survivor count (dose: 50.0 mg/kg/injection, schedule: Q06HX020 (ip), vehicle: saline): 0 of 10
T/C (dose: 50.0 mg/kg/injection, schedule: Q#A X Z (oral), vehicle: saline): 132 % of control
survivor count (dose: 53.0 mg/kg/injection, schedule: Q01DX007 (iv), vehicle: saline): 0 of 6
T/C [2]: 100, 116, 132, 173 % of control
survivor count [2]: 2 of 6
T/C (dose: 53.3 mg/kg/injection, schedule: Q01DX Z (ip), vehicle: carboxymethylcellulose (CMC)): 134 % of control
survivor count (dose: 53.3 mg/kg/injection, schedule: Q01DX Z (ip), vehicle: methylcellulose (MC)): 5 of 6
T/C (dose: 60.0 mg/kg/injection, schedule: Q01DX Z (ip), vehicle: saline): 147 % of control
T/C (dose: 60.0 mg/kg/injection, schedule: Q01DX Z (oral), vehicle: saline): 125 % of control
T/C (dose: 60.0 mg/kg/injection, schedule: Q#A X Z (ip), vehicle: saline): 137 and 144 % of control
T/C (dose: 62.0 mg/kg/injection, schedule: Q01DX Z (oral), vehicle: saline): 128 % of control (2×)
T/C (dose: 75.0 mg/kg/injection, schedule: Q03DX006 (oral), vehicle: saline): 125 % of control (2×)
survivor count (dose: 80.0 mg/kg/injection, schedule: Q01DX005 (ip), vehicle: saline): 4 of 10
survivor count (dose: 80.0 mg/kg/injection, schedule: Q01DX007 (iv), vehicle: saline): 0 of 6
survivor count (dose: 80.0 mg/kg/injection, schedule: Q01DX009 (ip), vehicle: saline): 1 of 10
survivor count (dose: 80.0 mg/kg/injection, schedule: Q01DX009 (oral), vehicle: saline): 10 of 10
T/C (dose: 80.0 mg/kg/injection, schedule: Q01DX Z (ip), vehicle: carboxymethylcellulose (CMC)): 134 % of control
T/C [3]: 111, 128, 135, 194 % of control
survivor count [3]: 1 of 6 and 5 of 6
survivor count (dose: 90.0 mg/kg/injection, schedule: Q01DX009 (ip), vehicle: saline): 5 of 6
T/C (dose: 90.0 mg/kg/injection, schedule: Q#A X Z (ip), vehicle: saline): 135 % of control
T/C [4]: 148 % of control
survivor count [4]: 6 of 6
T/C (dose: 100.0 mg/kg/injection, schedule: Q01DX001 (ip), vehicle: saline): 139 % of control [9 of 10 alive]
T/C (dose: 100.0 mg/kg/injection, schedule: Q01DX005 (ip), vehicle: Klucel (hydroxypropylcellulose) (HPC)): 138 % of control
T/C (dose: 100.0 mg/kg/injection, schedule: Q01DX005 (ip), vehicle: other): 143 % of control
survivor count (dose: 100.0 mg/kg/injection, schedule: Q01DX009 (ip), vehicle: saline): 5 of 6
T/C (dose: 100.0 mg/kg/injection, schedule: Q01DX Z (im), vehicle: saline): 137 and 143 % of control
T/C (dose: 100.0 mg/kg/injection, schedule: Q04DX003 (ip), vehicle: Klucel (hydroxypropylcellulose) (HPC)): 127 % of control
T/C [5]: 128 [5 of 6 alive] and 145 % of control
survivor count [5]: 4 of 10
survivor count (dose: 100.0 mg/kg/injection, schedule: Q06HX004 (ip), vehicle: saline): 0 of 10
T/C (dose: 100.0 mg/kg/injection, schedule: Q#A X Z (oral), vehicle: saline): 125 and 141 % of control
survivor count (dose: 120.0 mg/kg/injection, schedule: Q01DX007 (iv), vehicle: saline): 0 of 6
